Experimental data from PubChem BioAssay AID224 (DTP/NCI, 2004).
The list shows only some results of the screen, not a fair sample: it is rich in T/C values a quarter to a half above the control, in often repeated tests (any T/C) and in doses without a T/C. Further doses and runs are listed elsewhere. T/C gives the treated animals as a percentage of the vehicle group. Some entries give survivors of the animals treated and no T/C: the source holds a T/C of zero for them, seemingly a mark for toxic or unscored doses. Some doses without a T/C left all or most animals alive at the check, yet need not have been tolerated: survival well below the control is almost never listed, so the zero probably covers shortened survival too. Counts of survivors are from the toxicity check (mostly the fifth day) where no day follows; animals may have died later. Schedule codes are those of the source, taken here to give the interval after Q, in days (D) or hours (H), and the number of doses after X. Some schedule codes hold Z or #, which are not explained here. Some entries were tested several times; the values are given in rising order. For survival time, this PubChem deposit counts one and a half times the control or more as active, and values a quarter to a half above the control carry no call in these data; other NCI protocols may use other cut-offs.

Tested on: P335 leukemia ip, BDF1 mice, survival T/C %
Test: NCI In Vivo Anticancer Drug Screen. Data for tumor model P335 Leukemia (intraperitoneal) in B6D2F1 (BDF1) mice
Conditions: T/C endpoint: mean survival time, higher T/C = longer survival
Procedure: The antitumor activity of compounds was measured in mice bearing transplantable tumors. Survival or tumor size were measured and the results are expressed as the measurement made in the treated group (T) divided by the measurement made in the vehicle treated control group (C). The tumor model used in this assay is P335 Leukemia (intraperitoneal) in B6D2F1 (BDF1) mice

[1] = dose: 30.0 mg/kg/injection, schedule: Q01DX Z (ip), vehicle: carboxymethylcellulose (CMC)
[2] = dose: 60.0 mg/kg/injection, schedule: Q01DX Z (ip), vehicle: carboxymethylcellulose (CMC)
[3] = dose: 62.5 mg/kg/injection, schedule: Q01DX Z (ip), vehicle: carboxymethylcellulose (CMC)
[4] = dose: 500.0 mg/kg/injection, schedule: Q01DX Z (ip), vehicle: carboxymethylcellulose (CMC)
[5] = dose: 6.25 mg/kg/injection, schedule: Q01DX Z (ip), vehicle: carboxymethylcellulose (CMC)
[6] = dose: 25.0 mg/kg/injection, schedule: Q01DX Z (ip), vehicle: carboxymethylcellulose (CMC)
[7] = dose: 250.0 mg/kg/injection, schedule: Q01DX Z (ip), vehicle: carboxymethylcellulose (CMC)

Q: What does the source list for `Cc1cc(N(CCCl)CCCl)ccc1N=Nc1ccccc1C(=O)O`?
A: survivor count (dose: 0.12 mg/kg/injection, schedule: Q01DX Z (ip), vehicle: carboxymethylcellulose (CMC)): 6 of 6; survivor count (dose: 0.23 mg/kg/injection, schedule: Q01DX Z (ip), vehicle: carboxymethylcellulose (CMC)): 6 of 6; survivor count (dose: 0.47 mg/kg/injection, schedule: Q01DX Z (ip), vehicle: carboxymethylcellulose (CMC)): 6 of 6; survivor count (dose: 1.87 mg/kg/injection, schedule: Q01DX Z (ip), vehicle: carboxymethylcellulose (CMC)): 5 of 6; survivor count (dose: 3.75 mg/kg/injection, schedule: Q01DX Z (ip), vehicle: carboxymethylcellulose (CMC)): 5 of 6; survivor count (dose: 7.5 mg/kg/injection, schedule: Q01DX Z (ip), vehicle: carboxymethylcellulose (CMC)): 3 of 6 and 5 of 6; survivor count (dose: 15.0 mg/kg/injection, schedule: Q01DX Z (ip), vehicle: carboxymethylcellulose (CMC)): 6 of 6; survivor count [1]: 6 of 6; survivor count [2]: 5 of 6

Q: Which T/C (dose: 1.56 mg/kg/injection, schedule: Q01DX Z (ip), vehicle: saline) does the source give for `N=[N+]=CC(=O)OCC(N)C(=O)O` (configuration not stated) here?
A: 134 % of control

Q: And the T/C (dose: 3.12 mg/kg/injection, schedule: Q01DX Z (ip), vehicle: saline)?
A: 131 % of control

Q: And the T/C (dose: 6.25 mg/kg/injection, schedule: Q01DX Z (ip), vehicle: saline)?
A: 134 % of control

Q: And the T/C (dose: 9.37 mg/kg/injection, schedule: Q01DX Z (ip), vehicle: saline)?
A: 130 % of control

Q: What about the T/C (dose: 12.5 mg/kg/injection, schedule: Q01DX Z (ip), vehicle: saline) of the same molecule?
A: 145 % of control

Q: And the survivor count (dose: 100.0 mg/kg/injection, schedule: Q01DX Z (ip), vehicle: saline)?
A: 0 of 6

Q: What does the source list for `CCOC(=O)NP(=O)(N1CC1(C)C)N1CC1(C)C` (configuration not stated)?
A: survivor count [3]: 6 of 6; survivor count [4]: 5 of 6

Q: How did the survivor count (dose: 0.4 mg/kg/injection, schedule: Q01DX Z (ip), vehicle: carboxymethylcellulose (CMC)) turn out when `CCCCn1cnc2c(=S)nc[nH]c21` was run?
A: 6 of 6

Q: And the survivor count (dose: 0.8 mg/kg/injection, schedule: Q01DX Z (ip), vehicle: carboxymethylcellulose (CMC))?
A: 6 of 6

Q: What about the survivor count (dose: 1.6 mg/kg/injection, schedule: Q01DX Z (ip), vehicle: carboxymethylcellulose (CMC)) of the same molecule?
A: 6 of 6

Q: And the survivor count (dose: 3.1 mg/kg/injection, schedule: Q01DX Z (ip), vehicle: carboxymethylcellulose (CMC))?
A: 6 of 6

Q: And the survivor count [5]?
A: 6 of 6

Q: And the survivor count (dose: 12.5 mg/kg/injection, schedule: Q01DX Z (ip), vehicle: carboxymethylcellulose (CMC))?
A: 6 of 6

Q: What about the survivor count [6] of the same molecule?
A: 6 of 6

Q: What about the survivor count (dose: 50.0 mg/kg/injection, schedule: Q01DX Z (ip), vehicle: carboxymethylcellulose (CMC)) of the same molecule?
A: 6 of 6

Q: What about the survivor count (dose: 100.0 mg/kg/injection, schedule: Q01DX Z (ip), vehicle: carboxymethylcellulose (CMC)) of the same molecule?
A: 6 of 6

Q: And the survivor count (dose: 200.0 mg/kg/injection, schedule: Q01DX Z (ip), vehicle: carboxymethylcellulose (CMC))?
A: 1 of 6

Q: How did the survivor count [1] turn out when `C[C@H]1C(=O)O[C@@H]2CCN3CC=C(COC(=O)[C@](C)(O)[C@@]1(C)O)[C@H]23` was run?
A: 5 of 6

Q: What about the survivor count [2] of the same molecule?
A: 6 of 6

Q: What about the survivor count (dose: 120.0 mg/kg/injection, schedule: Q01DX Z (ip), vehicle: carboxymethylcellulose (CMC)) of the same molecule?
A: 6 of 6

Q: `C=CC(CN1CC1)OC(C)=O` (configuration not stated) was tested. Which T/C (dose: 3.8 mg/kg/injection, schedule: Q01DX Z (ip), vehicle: carboxymethylcellulose (CMC)) did it give?
A: 140 % of control

Q: For `CC(CCC(C)OS(C)(=O)=O)OS(C)(=O)=O` (configuration not stated), which survivor count (dose: 40.0 mg/kg/injection, schedule: Q01DX Z (ip), vehicle: carboxymethylcellulose (CMC)) is on record?
A: 6 of 6

Q: Which T/C (dose: 75.0 mg/kg/injection, schedule: Q01DX Z (ip), vehicle: carboxymethylcellulose (CMC)) does the source give for `O=C1CCC(N2C(=O)c3ccccc3C2=O)C(=O)N1` (configuration not stated) here?
A: 138 % of control

Q: Which survivor count (dose: 8.0 mg/kg/injection, schedule: Q01DX Z (ip), vehicle: carboxymethylcellulose (CMC)) does the source give for `Clc1ncnc2nc[nH]c12` here?
A: 6 of 6

Q: And the survivor count (dose: 16.0 mg/kg/injection, schedule: Q01DX Z (ip), vehicle: carboxymethylcellulose (CMC))?
A: 6 of 6

Q: What about the survivor count (dose: 31.0 mg/kg/injection, schedule: Q01DX Z (ip), vehicle: carboxymethylcellulose (CMC)) of the same molecule?
A: 6 of 6

Q: And the survivor count [7]?
A: 0 of 6

Q: With `CC/C(=C(/CC)c1ccc(O)cc1)c1ccc(O)cc1` as the molecule, how does the T/C (dose: 31.25 mg/kg/injection, schedule: Q01DX Z (sc), vehicle: steroid suspending solution) read?
A: 131 % of control

Q: And the survivor count (dose: 62.5 mg/kg/injection, schedule: Q01DX Z (sc), vehicle: steroid suspending solution)?
A: 3 of 6

Q: And the survivor count (dose: 125.0 mg/kg/injection, schedule: Q01DX Z (sc), vehicle: steroid suspending solution)?
A: 4 of 6 and 5 of 6

Q: And the survivor count (dose: 250.0 mg/kg/injection, schedule: Q01DX Z (sc), vehicle: steroid suspending solution)?
A: 6 of 6

Q: What about the survivor count (dose: 500.0 mg/kg/injection, schedule: Q01DX Z (sc), vehicle: steroid suspending solution) of the same molecule?
A: 5 of 6

Q: And the survivor count (dose: 1000.0 mg/kg/injection, schedule: Q01DX Z (sc), vehicle: steroid suspending solution)?
A: 1 of 6

Q: Which results are given for `CSc1ncnc2nc[nH]c12`?
A: survivor count [5]: 6 of 6; survivor count [6]: 6 of 6; survivor count (dose: 25.0 mg/kg/injection, schedule: Q01DX Z (ip), vehicle: methylcellulose (MC)): 6 of 6; survivor count (dose: 100.0 mg/kg/injection, schedule: Q01DX Z (ip), vehicle: methylcellulose (MC)): 6 of 6; survivor count (dose: 200.0 mg/kg/injection, schedule: Q01DX Z (ip), vehicle: methylcellulose (MC)): 5 of 6

Q: How did the survivor count (dose: 0.25 mg/kg/injection, schedule: Q01DX Z (ip), vehicle: carboxymethylcellulose (CMC)) turn out when `O=C(Nc1ccc(C2=NCCCN2)cc1)c1ccc(NC(=O)c2ccc(C3=NCCCN3)cc2)cc1` was run?
A: 0 of 6

Q: And the survivor count (dose: 0.5 mg/kg/injection, schedule: Q01DX Z (ip), vehicle: carboxymethylcellulose (CMC))?
A: 4 of 6

Q: What about the survivor count (dose: 1.0 mg/kg/injection, schedule: Q01DX Z (ip), vehicle: carboxymethylcellulose (CMC)) of the same molecule?
A: 1 of 6

Q: And the T/C (dose: 2.0 mg/kg/injection, schedule: Q01DX Z (ip), vehicle: carboxymethylcellulose (CMC))?
A: 147 % of control

Q: And the survivor count (dose: 32.0 mg/kg/injection, schedule: Q01DX Z (ip), vehicle: carboxymethylcellulose (CMC))?
A: 3 of 6

Q: And the survivor count [3]?
A: 2 of 6

Q: What about the survivor count (dose: 125.0 mg/kg/injection, schedule: Q01DX Z (ip), vehicle: carboxymethylcellulose (CMC)) of the same molecule?
A: 1 of 6

Q: And the survivor count [7]?
A: 0 of 6

Q: And the survivor count [4]?
A: 0 of 6
